Several values for one entry are separate records, joined by “and”; a condition that tells them apart may be missing. Equal values may be shown once. The campaign covered roughly 220,000 compounds. About 770 (0.35%) were called active. Inconclusive means that the source gave no clear call. Such entries were picked first, then a sample of the others. No stated cut-off is given here; in the data, active means binding response below about 49% or above about 150%; inconclusive means no clear call, values can overlap the other calls; inactive means in between.
Target: Guanine nucleotide-binding protein G(o) subunit alpha (Homo sapiens) (UniProt P09471)
Assay: RGS7-Galphao binding modulators, primary screen, biochemical, multiplexed bead flow cytometry (AID 1439);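 further: fluorescent Galphao held in activated GDP-AlF4 state binding bead-coupled RGS7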
Conditions: at 10 µM, actives lie on both sides

Protein sequences, listed by entry. Tags and fused reporters are not part of them.
UniProt P09471, whole entry, looked up: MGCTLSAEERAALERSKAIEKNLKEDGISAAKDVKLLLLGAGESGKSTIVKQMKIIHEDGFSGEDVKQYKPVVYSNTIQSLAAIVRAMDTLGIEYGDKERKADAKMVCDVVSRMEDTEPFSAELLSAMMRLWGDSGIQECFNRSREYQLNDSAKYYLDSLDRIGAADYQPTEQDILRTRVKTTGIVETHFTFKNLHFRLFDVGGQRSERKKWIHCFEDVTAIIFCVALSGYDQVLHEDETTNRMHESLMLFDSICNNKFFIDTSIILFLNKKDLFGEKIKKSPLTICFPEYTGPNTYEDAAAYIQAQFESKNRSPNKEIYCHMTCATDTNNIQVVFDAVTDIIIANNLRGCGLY

Compound	binding response (% of control)
Cc1ccc(N2C(=O)[C@@H]3C(c4cccnc4)=NO[C@@H]3C2=O)cc1	inconclusive: 87.7%
O=C(Nc1ccccc1)Nc1ccccn1	inconclusive: 306% and inactive: 118%
CC(=O)/C(N=Nc1cc2c(c([N+](=O)[O-])c1C)C(C)(C)CC2(C)C)=C(\C)O	inconclusive: 97.3%
Cc1nc2ccccc2c(C)c1C(=O)c1ccc(F)cc1	inactive: 97.5%
COc1ccc(CC2S/C(=N/N=C/c3ccccc3O)NC2=O)cc1 (stereo not drawn)	inconclusive: 98%
COc1ccc(C(=O)N2CCC(C(=O)c3c(C)cc(C)cc3C)CC2)cc1	inconclusive: 1.13%
O=C(NC(=S)Nc1ccc(CN2CCOCC2)cc1)c1ccc([N+](=O)[O-])cc1Cl	inconclusive: 94.9%
COc1ccc(CNC(=O)CSc2nn3c(=O)c(C(C)(C)C)nnc3s2)cc1OC	inconclusive: 100%
O=C(CN1CCC(NC(=O)c2ccco2)CC1)Nc1cccc2ccccc12	inactive: 117%
CCCN1CCC(=O)N([C@H](CSc2ccc(C)cc2)CC(C)C)CC1	inconclusive: 7.36%
Cc1cccn2c(=O)c(/C=C(\C#N)C(N)=O)c(Oc3ccccc3)nc12	inconclusive: 49.7%
CCCOC(=O)c1ccc(OC(=O)c2ccco2)cc1	inactive: 137%
S=c1[nH]nc(Nc2ccc(Cl)cc2)s1	inconclusive: 150%
Cc1ccc(CNC(=O)CNC(=O)c2c(C)nn(C)c2Cl)cc1	inconclusive: 103%
CC(C)S(=O)(=O)C1=NSC2=NC(=O)/C(=C\c3ccc(-c4cccc(C(=O)O)c4)o3)C(=N)N21	inconclusive: 75.2%
CCN(Cc1cc(=O)n2ccsc2n1)Cc1nc2ccccc2c(=O)[nH]1	inconclusive: 121%
Cn1cccc2[nH]c(=O)nc1-2	inconclusive: 98.4%
COC(=O)CSc1ncnc2scc(-c3ccccc3)c12	inconclusive: 89.8%
CC1CN(/C=C/C(=O)C(F)(F)F)CC(C)O1 (stereo not drawn)	inconclusive: 96.5%
Cc1cccc(NC(=O)CSc2nnc(Cc3ccccc3)o2)c1	inactive: 98.2%

Compound	binding response (% of control)
O=c1c2c3c(sc2n2c(=S)[nH]nc2n1-c1ccccc1)CCC3	inconclusive: 118%
COc1cc(-c2ccc(NC(C)=O)c(OC)c2)ccc1NC(C)=O	inconclusive: 92%
CCCOc1ccc(C2CC(=O)NC2=O)cc1 (stereo not drawn)	inactive: 106%
CCc1ccc(N(CC(=O)NCc2ccc(F)cc2)C(=O)c2csnn2)cc1	inactive: 98.4%
C/C=C(\C)CN1CCCC(CO)(Cc2ccccc2)C1 (stereo not drawn)	inactive: 109%
CCC/C(O)=C1\C(=O)CC(C)(C)CC1=NCc1ccccc1	inconclusive: 389%
Cc1ccc(NS(=O)(=O)c2cc(NC(=O)c3ccc4c(c3)NC(=O)CS4)ccc2Cl)c(C)c1	inactive: 98.8%
Cc1csc(/N=C/N(C)C)c1C#N	inconclusive: 91.8%
O=C(N/N=C/c1cc2ccccc2[nH]1)c1ccccc1Cl	inconclusive: 75.3%
Cc1cc(C)c2nc(Cl)c(C3NC(=O)c4ccccc4N3)cc2c1 (stereo not drawn)	inconclusive: 89.9%
Cc1occc1-c1nnc(SCC(=O)O)n1-c1ccccc1	inconclusive: 112%
Cc1cccc(C)c1-n1c(C)nn(CCOc2ccccc2)c1=O	inconclusive: 103%
CC1CN(CCn2cnc3c(N)ncnc32)CC(C)O1 (stereo not drawn)	inconclusive: 376%
O=C(NCc1ccc(-c2csnn2)cc1)c1cccs1	inconclusive: 56.8%
CCCS(=O)(=O)c1ccc(COC(=O)c2ccc(NC(C)=O)cc2)cc1	inactive: 101%
COc1ccc(C)cc1NC(=O)N1CCC(CO)(CC2CCCCO2)CC1 (stereo not drawn)	inconclusive: 103%
Cc1ccc(Cn2ncc3c(N4CCN(CCc5ccccc5)CC4)ncnc32)cc1	inconclusive: 121%
Nc1cc(=O)[nH]n1C1CCCC1	inconclusive: 100%
NNC(=O)c1ccc(Cn2cc(Br)cn2)o1	inconclusive: 57.7%
N#CC(C#N)=Cc1ccc(NC(=O)c2ccc(Br)cc2)cc1	inconclusive: 78%

Part of the list above in order of molar mass, low to high.
Compound	binding response (% of control)
Cc1csc(/N=C/N(C)C)c1C#N	inconclusive: 91.8%
NNC(=O)c1ccc(Cn2cc(Br)cn2)o1	inconclusive: 57.7%
COc1cc(-c2ccc(NC(C)=O)c(OC)c2)ccc1NC(C)=O	inconclusive: 92%

(cont.)

Compound	binding response (% of control)
C=CCOc1ccc(/C=C2\SC(=Nc3cccnc3)NC2=O)cc1	inconclusive: 124%
NC(=O)NC(=O)COC(=O)CNS(=O)(=O)c1ccc(F)c(F)c1F	inconclusive: 145%
Cc1ccc(S(=O)(=O)NCc2csc(-c3cccs3)n2)cc1	inconclusive: 79.7%
CCNC(=O)C(CCSC)NS(=O)(=O)c1ccc(C)cc1 (stereo not drawn)	inconclusive: 113%
CC(CNS(=O)(=O)c1ccccc1)(c1ccccc1)N1CCCCC1 (stereo not drawn)	inconclusive: 115%
CN(C)S(=O)(=O)c1ccc(-c2csc(N/N=C/c3ccc(O)cc3)n2)cc1	inconclusive: 141%
CCN1CCN(c2cc(C)c3cc(NC(=O)c4cc(OC)cc(OC)c4)ccc3n2)CC1	inconclusive: 127%
COc1ccc(C(=O)NC=C2C(=O)OC(C)(C)OC2=O)cc1	inactive: 103%
O=C(NC(=S)Nc1ccc(Cl)cc1)c1ccccc1	inconclusive: 14.3%
N#C/C(=C\c1ccc(O)cc1)C(=O)N1CCCC1	inconclusive: 70.3%
CCOC(=O)Cc1csc(N/N=C/c2ccc(Cl)cc2)n1	inconclusive: -5.08%
Cc1ccc(C(=O)Nc2cccc(C(F)(F)F)c2)cc1Nc1ccccn1	inconclusive: 112%
CC(=O)Oc1c(C)c(OC(C)=O)c2c(c1C(C)=O)OC1CC(=O)C(C(C)=O)=C(O)C21C (stereo not drawn)	inconclusive: 96.4%
Cc1cc(-c2onc(C)c2C(=O)N/N=C/c2ccccc2)no1	inconclusive: 119%
CCN1CCN(Cc2ccc(NC(=O)c3ccc(C)c(NC(=O)c4nccn4C)c3)cc2C(F)(F)F)CC1	inconclusive: 88.3%
COCCCNC(=S)NNC(=S)Nc1cccc(Cl)c1	inconclusive: 114%
COc1cccc(C(c2c(N)[nH]c(=S)[nH]c2=O)c2c(N)[nH]c(=S)[nH]c2=O)c1	inconclusive: 90%
CCC(C)(C)NC(=O)CN(Cc1ccc2c(c1)OCO2)C(=O)CCC(=O)Nc1nccs1	inconclusive: 230%

From PubChem BioAssay AID1439 (NMMLSC, 2008)
